Measured values taken from the supplement of paper PMC4604168 (melanoma cell lines).
The list shows a part of the results. Many values rest on one well or one pass, so single values are uncertain.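 The apoptosis fraction was the count of cleaved-PARP antibody-stained nuclei relative to all DNA-stained nuclei, imaged in 1,536-well plates. Screening doses were set so most cells survived, and baseline and induced cleaved-PARP levels vary greatly across cell lines.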

Experiments:
Assay in all cases: cleaved PARP positive nuclei fraction relative to DMSO control; melanoma cells; higher = more apoptosis
Conditions in all cases: library dose: low library concentration; 72 h
[1] = test system: MZ2-MEL
[2] = test system: MeWo
[3] = test system: RPMI7951
[4] = test system: RVH-421
[5] = test system: SkMel28
[6] = test system: SkMel2
[7] = test system: SkMel30
[8] = test system: SkMel5
[9] = test system: UACC257
[10] = test system: UACC62
[11] = test system: WM115
[12] = test system: WM1716
[13] = test system: WM1745
[14] = test system: WM3526
[15] = test system: WM3619
[16] = test system: WM451Lu

SMILES	cleaved PARP positive nuclei fraction [1]	cleaved PARP positive nuclei fraction [2]	cleaved PARP positive nuclei fraction [3]	cleaved PARP positive nuclei fraction [4]	cleaved PARP positive nuclei fraction [5]	cleaved PARP positive nuclei fraction [6]	cleaved PARP positive nuclei fraction [7]	cleaved PARP positive nuclei fraction [8]	cleaved PARP positive nuclei fraction [9]	cleaved PARP positive nuclei fraction [10]	cleaved PARP positive nuclei fraction [11]	cleaved PARP positive nuclei fraction [12]	cleaved PARP positive nuclei fraction [13]	cleaved PARP positive nuclei fraction [14]	cleaved PARP positive nuclei fraction [15]	cleaved PARP positive nuclei fraction [16]
Nc1ncn([C@H]2C[C@H](O)[C@@H](CO)O2)c(=O)n1 [decitabine] + Cc1ccc(NC(=O)c2cccc(N(C)C)c2)cc1NC(=O)c1ccc(O)cc1 [ZM336372] (first compound 0.1 µM, partner dose 2 µM)	222%	112%	165%	122%	70.5%	77.3%	138%	76.2%	92.1%	64.4%	64.6%	88%	92.3%	59.4%	109%	224%
Nc1ccn([C@@H]2O[C@H](CO)[C@@H](O)C2(F)F)c(=O)n1 [gemcitabine] + Oc1cc(-c2nc(-c3ccccc3)[nH]c2-c2ccncc2)ccc1Cl [L779450] (first compound 0.0004 µM, partner dose 0.2 µM)	156%	112%	169%	67.4%	150%	239%	73.6%	32.5%	171%	237%	84.3%	38%	147%	76.3%	150%	45.2%
Cn1c(=O)n(-c2ccc(C(C)(C)C#N)cc2)c2c3cc(-c4cnc5ccccc5c4)ccc3ncc21 + Cc1cc(N2CCOCC2)cc2[nH]c(-c3c(NC[C@@H](O)c4cccc(Cl)c4)cc[nH]c3=O)nc12 [BMS536924] (first compound 0.004 µM, partner dose 0.2 µM)	97.7%	53.5%	71.6%	89%	73.6%	82%	94.7%	487%	94.7%	181%	91.1%	79.7%	112%	121%	97.3%	154%
Nc1ncn([C@H]2C[C@H](O)[C@@H](CO)O2)c(=O)n1 [decitabine] + Cc1cc(N2CCOCC2)cc2[nH]c(-c3c(NC[C@@H](O)c4cccc(Cl)c4)cc[nH]c3=O)nc12 [BMS536924] (first compound 0.1 µM, partner dose 0.2 µM)	49.5%	153%	213%	136%	90.6%	119%	66.7%	72.9%	122%	104%	123%	86.6%	116%	55.2%	101%	57.9%
CNC(=O)c1cc(Oc2ccc(NC(=O)Nc3ccc(Cl)c(C(F)(F)F)c3)cc2)ccn1 [sorafenib] + COc1cc(Nc2ncc(F)c(Nc3ccc4c(n3)NC(=O)C(C)(C)O4)n2)cc(OC)c1OC [Tamatinib] (first compound 0.4 µM, partner dose 0.4 µM)	105%	49.2%	181%	33.1%	93.8%	106%	74.9%	78.7%	47.5%	176%	58.9%	176%	120%	50.1%	99.9%	51%
CS(=O)(=O)CCNCc1ccc(-c2ccc3ncnc(Nc4ccc(OCc5cccc(F)c5)c(Cl)c4)c3c2)o1 [lapatinib] + O=C(O)C(=O)Nc1sc2c(c1C(=O)O)CCNC2 [TCS401] (first compound 0.8 µM, partner dose 1.66667 µM)	75.2%	111%	196%	116%	55%	86.6%	39.9%	74.8%	139%	118%	95.2%	92.2%	99.3%	152%	86%	74%
O=C(O)c1ccc2c(c1)nc(Nc1cccc(Cl)c1)c1ccncc12 + CCN(CC)CCCCNc1ncc2cc(-c3cc(OC)cc(OC)c3)c(NC(=O)NC(C)(C)C)nc2n1 [PD173074] (first compound 0.4 µM, partner dose 0.1 µM)	71.2%	219%	31.5%	85.8%	60.3%	129%	80.2%	73.8%	139%	100%	337%	111%	97.7%	72.6%	100%	323%
C[C@@H](Oc1cc(-c2cnn(C3CCNCC3)c2)cnc1N)c1c(Cl)ccc(F)c1Cl [Crizotinib] + CN(NC(=O)CC(=O)NN(C)C(=S)c1ccccc1)C(=S)c1ccccc1 [STA4783] (first compound 0.2 µM, partner dose 0.006 µM)	43.3%	175%	19.6%	379%	29.2%	107%	63.7%	185%	178%	299%	227%	195%	119%	23.7%	110%	80.6%
Nc1ccn([C@@H]2O[C@H](CO)[C@@H](O)C2(F)F)c(=O)n1 [gemcitabine] + OCCn1cc(-c2cnc3nnn(Cc4ccc5ncccc5c4)c3n2)cn1 [PF04217903] (first compound 0.0004 µM, partner dose 1 µM)	133%	101%	128%	60.6%	60.3%	154%	66.7%	43.5%	83.3%	151%	151%	80.2%	173%	69.9%	144%	142%
C[C@@H](Oc1cc(-c2cnn(C3CCNCC3)c2)cnc1N)c1c(Cl)ccc(F)c1Cl [Crizotinib] + CC(C)CCN1c2nc(Nc3cc(F)c(O)c(F)c3)ncc2N(C)C(=O)C1C [BID1870] (first compound 0.2 µM, partner dose 0.2 µM)	140%	128%	150%	222%	138%	83.9%	15.9%	456%	116%	107%	163%	86.3%	83.8%	57.6%	83.6%	103%
